Test results from PubChem BioAssay AID2685 (National Center for Advancing Translational Sciences (NCATS), 2010).
This is one part of the list. Shown are side measurements of this screen, not its main read-out; they come without a call. Compounds called inactive in the main read-out are mostly missing here. Words in brackets tell the shape of the fitted curve; partial curves, single points and poor fits give uncertain potencies.

Experiment: qHTS Assay for Lipid Storage Modulators in Drosophila S3 Cells;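 as to cell number change: cells counted by Cell Tracker Red CMTPX staining in the red channel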
Details: BODIPY lipid droplet fluorescence, 18-24 h; for cell number change: measured here: cell count max response, cells fed with added oleic acid
Procedure, shortened: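 Drosophila S3 cells got compounds at several concentrations plus oleic acid (400 uM solution). Laser-scanning cytometry with 488 nm excitation read lipid droplets at 500-530 nm and cells at 575-640 nm. Percent activity was relative to 20 uM Triacsin C.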

[1] = measured here: lipid fluorescence (Fed channel) AC50, cells fed with added oleic acid
[2] = measured here: cell number channel AC50, cells fed with added oleic acid

Structure (SMILES) | cell number change [%] | AC50 [1] | AC50 [2]
CO/N=C/c1c(-c2ccccc2)nn(C)c1Cl | -16.9 | 6.51 µM [falling, partial curve, poor fit] | 
Cc1cc(C(=O)COC(=O)c2cccc(S(=O)(=O)N(C)C)c2)c(C)n1CC1CCCO1 (stereo not given) | -11.2 |  | 
COC(=O)C1CCN(S(=O)(=O)Cc2ccccc2)CC1 | 15.9 | 0.092 µM [falling, full curve] | 
COc1ccc(Cl)cc1NC(=S)N1CCN(c2ncccn2)CC1 | 17.6 |  | 
O=C(O)COc1ccccc1/C=N/Nc1ccc(S(=O)(=O)N2CCOCC2)cc1[N+](=O)[O-] | 27.7 | 0.146 µM [rising, full curve, poor fit] | 
Cc1ccc(-c2csc(N3CCN(c4cc5c(cc4Cl)nc(C(C)N)n5CCCO)CC3)n2)cc1 (stereo not given) | 30.4 | 29.1 µM [rising, single point] | 
C/C(CCC(C)C)=N\Nc1cc(C)c2ccccc2n1 | 80.1 | 3.26 µM [rising, partial curve] | 2.59 µM [rising, full curve]
O=C1C2C3C=CC(C3)C2C(=O)N1Nc1ccc([N+](=O)[O-])cc1[N+](=O)[O-] (stereo not given) | -13.1 |  | 
COC(=O)c1sc(S(=O)(=O)NCc2ccccc2)c(C(=O)OC)c1C | 3.66 | 29.1 µM [rising, single point] | 
Cc1cc(NC(=O)c2noc3c2CCc2ccccc2-3)n(-c2ccccc2)n1 |  | 32.6 µM [falling, single point] | 
CC(C)c1csc(CN2CCC(CO)(Cc3ccccc3)CC2)n1 | -15.9 | 9.2 µM [falling, partial curve, poor fit] | 
Cc1cc(NC(=O)CSc2nnc(C3COc4ccccc4O3)o2)no1 (stereo not given) | -14.8 | 0.184 µM [falling, full curve, poor fit] | 0.517 µM [falling, full curve, poor fit]
C=CCn1c(SCC(=O)NCC2CCCO2)nc2sc(C)c(C)c2c1=O (stereo not given) | -10.3 | 1.84 µM [falling, partial curve] | 
CN(Cc1ccccc1)C1CC(=O)N(c2ccc(C(=O)O)cc2)C1=O (stereo not given) | -180 |  | 7.31 µM [falling, partial curve]
Cc1ccccc1OCCC(=O)Nc1c(C)n(C)n(-c2ccccc2)c1=O | -12.5 | 3.26 µM [falling, single point] | 
O=C(NCc1ccccn1)c1nn(-c2ccccc2)c(=O)c2ccccc12 | -3.01 | 16.4 µM [falling, single point] | 
Cc1ccc(C)c(NC(=O)CN(C)C(=O)C2CCCC2)c1 | -5.52 | 6.51 µM [falling, single point] | 
O=C1c2ccccc2-c2cccc(C(=O)N3CCCCCC3)c21 | 1.81 | 9.2 µM [rising, partial curve] | 
Cc1ccc(CSc2nnc(SCC(=O)N/N=C/C=C/c3ccco3)s2)cc1 | -13.8 | 0.517 µM [rising, partial curve, poor fit] | 
COC(=O)CSc1nc2c(c(=O)n(C)c(=O)n2C)n1CCCc1ccccc1 | -9.58 |  | 

Structure (SMILES) | cell number change [%] | AC50 [1] | AC50 [2]
O=C(COC(=O)c1ccccc1Oc1ccccc1)NC1CCS(=O)(=O)C1 (stereo not given) | -2.86 | 0.13 µM [falling, full curve, poor fit] | 
CCC(=O)OCC(=O)Nc1ccc2c(c1)OCO2 | 28 | 2.31 µM [falling, partial curve, poor fit] | 
CCC1(c2ccc(F)cc2)NC(=O)N(CC(=O)Nc2ccc(-c3nc4ccc(C)cc4s3)cc2)C1=O (stereo not given) | 34.1 |  | 29.1 µM [rising, single point]
N#CC(C#N)=C(Nc1ccc(F)cc1)SCc1cccc(Br)c1 | -40.6 | 16.4 µM [falling, partial curve, poor fit] | 32.6 µM [falling, partial curve, poor fit]
Cn1c(Oc2ccccc2NCc2cccc(Br)c2)cc(=O)n(C)c1=O | -9.06 |  | 
O=C(NCC(=O)N(c1ccc(Cl)cc1)C(C(=O)NC1CCCC1)c1ccncc1)c1ccco1 (stereo not given) | -13.2 | 0.447 µM [falling, single point] | 
FC(F)(F)c1cnc(Sc2nnc(-c3cccs3)n2CC2CCCO2)c(Cl)c1 (stereo not given) | 32.1 |  | 0.206 µM [rising, full curve, poor fit]
O=C(CCc1ccccc1)NNC(=O)COc1ccccc1 | 38.2 |  | 16.4 µM [rising, single point]
O=C(Cn1nnc(-c2ccccc2NC(=O)c2ccccc2F)n1)NCc1ccco1 | -3.72 | 4.61 µM [rising, single point] | 
CCNC(=O)NC(=O)C(C)Sc1ccc2c(c1)OCCO2 (stereo not given) | -42.6 |  | 0.58 µM [falling, partial curve, poor fit]
CCOc1ccc(NC(=O)c2ccc(Br)o2)c([N+](=O)[O-])c1 | -27.4 | 9.2 µM [falling, partial curve, poor fit] | 
O=C(Cc1ccccc1F)Nc1ccc2c(c1)CCC2 | 11.5 |  | 
O=C(c1ccccc1Br)N1N=C(c2ccccc2)CC1c1ccccc1F (stereo not given) | 49.3 | 4.11 µM [rising, full curve] | 3.26 µM [rising, full curve, poor fit]
C=CCN(c1ccccc1)S(=O)(=O)c1ccc(Cl)c(C(=O)OCC(=O)c2[nH]c(C)c(C(C)=O)c2C)c1 | -27.2 | 6.51 µM [rising, partial curve] | 6.51 µM [rising, single point]
CC(C)Cc1nc2n[nH]c(N)c2c2c1COC(C)(C)C2 |  | 0.116 µM [rising, full curve, poor fit] | 
CCc1ccc(OCC(=O)N2CCc3ccccc32)cc1 | 6.67 | 29.1 µM [rising, single point] | 
CC(C)Cc1ccc(C(=O)Nc2ccc(Cc3ccncc3)cc2)o1 | -32.7 |  | 29.1 µM [falling, single point]
O=C(CNC(=O)c1cccs1)OCC(=O)c1ccccc1Cl | 88.9 |  | 18.4 µM [rising, single point]
COCCN(CCOC)C(=O)COC(=O)c1cc([N+](=O)[O-])ccc1Cl | 36.8 | 5.8 µM [rising, partial curve, poor fit] | 
CCOC(=O)c1ccc(C(=O)NNC(=O)C2C3C=CC(C3)C2C(=O)O)cc1 (stereo not given) | 9.35 | 5.8 µM [rising, single point] | 

Structure (SMILES) | cell number change [%] | AC50 [1] | AC50 [2]
Cc1ccc(-n2cccc2/C=C2/NC(=O)N(CC(=O)Nc3cccc(C)c3)C2=O)cc1 | 9.15 |  | 
COc1ccc(N2CCN(C(=O)CNC(=O)Cc3ccccc3)CC2)cc1 | 2.21 | 29.1 µM [falling, single point] | 
CCOc1cc(N2CCOCC2)c(OCC)cc1NC(=O)c1cc(C)cc(C)c1 | -13.3 |  | 
Cc1ccc(S(=O)(=O)N2[C@@H](c3ccc(F)cc3)C(C(=O)O)=CC[C@H]2c2ccc3c(c2)OCO3)cc1 | -22.7 | 16.4 µM [rising, partial curve, poor fit] | 
CCOC(=O)N1CCN(C(=O)Nc2cccc(Cl)c2)CC1 | 13.7 |  | 2.06 µM [rising, single point]
COc1ccc(C(=O)NC(=S)Nc2cc(C)ccn2)cc1[N+](=O)[O-] |  | 2.91 µM [rising, full curve] | 0.517 µM [rising, full curve]
CC(C)(C)c1ccc(O)c(N=Cc2cc3c(cc2[N+](=O)[O-])OCO3)c1 | 6.2 | 29.1 µM [falling, single point] | 
Cc1noc(C)c1COc1cccc(C(=O)OCC(=O)NC(=O)c2ccc(OC(F)F)cc2)c1 | -22.6 | 0.651 µM [falling, partial curve] | 
CN(C)S(=O)(=O)c1ccc(C(=O)Nc2cccnc2)cc1 | 24.2 | 29.1 µM [falling, single point] | 
CN(C(=O)c1ccccc1C(=O)OCC(=O)NC(=O)NC(C)(C)C)C1CCCCC1 |  | 4.61 µM [falling, single point] | 
CSCCC(NC(=O)c1ccc(Cl)cc1)C(=O)OCC(=O)c1ccc[nH]1 (stereo not given) | 3.95 | 7.31 µM [rising, partial curve, poor fit] | 
O=C(COc1ccc(-c2nnco2)cc1)N1CCN(S(=O)(=O)c2ccccc2)CC1 | 5.67 | 1.46 µM [rising, partial curve] | 
CCCCNC(=O)O[C@H]1C[C@@H]2CCN3C(=O)CCC(C)(C)[C@H](C1)[C@H]23 | -10.8 | 20.6 µM [falling, single point] | 
CCSc1nnc(-c2ccncc2)n1Cc1ccccc1 | 38.7 | 0.92 µM [rising, partial curve] | 
Cc1cc(NCCCn2ccnc2)n2ncc(-c3ccccc3)c2n1 | 66.2 | 0.58 µM [rising, partial curve] | 29.1 µM [rising, partial curve, poor fit]
CC(C)c1cc(N2CCC(=O)NC2=O)cc(C(=O)O)c1O | -3.67 | 0.0731 µM [rising, full curve, poor fit] | 0.082 µM [rising, full curve, poor fit]
Cc1c(OCC(N)=O)ccc2c(-c3ccccc3)cc(=O)oc12 | 13.3 | 6.51 µM [falling, single point] | 
CN(C)C(=O)Cn1cnc2c(cnn2-c2ccccc2Cl)c1=O | 13.4 | 5.17 µM [falling, single point] | 
Cc1ccc(-n2c(-c3ccc(Br)cc3)c[n+]3c2CCc2ccc4cccnc4c2-3)cc1 | -85.2 | 0.731 µM [falling, full curve] | 2.31 µM [falling, full curve]

A draw from above in order of formula weight, low to high:
Structure (SMILES) | cell number change [%] | AC50 [1] | AC50 [2]
CN(C)C(=O)Cn1cnc2c(cnn2-c2ccccc2Cl)c1=O | 13.4 | 5.17 µM [falling, single point] | 
O=C(COc1ccc(-c2nnco2)cc1)N1CCN(S(=O)(=O)c2ccccc2)CC1 | 5.67 | 1.46 µM [rising, partial curve] | 
Cc1ccc(-n2c(-c3ccc(Br)cc3)c[n+]3c2CCc2ccc4cccnc4c2-3)cc1 | -85.2 | 0.731 µM [falling, full curve] | 2.31 µM [falling, full curve]
